Test results: the supplement of paper PMC12067093, “Discovery and optimisation of a covalent ligand for TRIM25 and its application to targeted protein ubiquitination” (Chemical Science, 2025)
This is one part of the list.
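Further: competitive chemoproteomic profiling in live THP-1 cells with an iodoacetamide desthiobiotin (IA-DTB) probe, comparing probe-labelled peptide intensities in compound-treated cells against DMSO-treated controls.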

What follows are targets tested with CC1Cc2ccccc2N1C(=O)C1CCCN(C1)C(=O)CCl (mixture of isomers) [TRIM25 ligand 11 (diastereomer mixture)] (assay: probe-labelled cysteine peptide fold change vs DMSO (competition) (log2 fold change); higher = less target engagement (more negative = stronger competition)). Conditions: 10 µM; THP-1; incubation time: 4 h.
For “RABL6_Q3YEC7_172_VPTHVPVCVLGNYR (UniProt Q3YEC7)”, the “probe-labelled cysteine peptide fold change” value was 0.0329. For “RAD21_O60216_392_CLTPLVPEDLR (UniProt O60216)”, the “probe-labelled cysteine peptide fold change” value was -0.096. With “PXN_P49023_505+523_ECFTPFVNGSFFEHDGQPYCEVHYHER (UniProt P49023)” the “probe-labelled cysteine peptide fold change” value was 0.156. With “R3HCC1_Q9Y3T6_5_ALLCLDGVFLSSAENDFVHR (UniProt Q9Y3T6+R3HCC1)” the “probe-labelled cysteine peptide fold change” value was -0.132.

Same assay, conditions: 50 µM; THP-1; incubation time: 4 h
“QDPR_P09417_85_VDAILCVAGGWAGGNAK (UniProt P09417)” was tested, and the “probe-labelled cysteine peptide fold change” value was -0.0321. “RAB21_Q9UL25_126+128_MLGNEICLCIVGNK (UniProt Q9UL25)” was tested, and the “probe-labelled cysteine peptide fold change” value was 0.151. With “PYGL_P06737_446_INMAHLCIVGSHAVNGVAK (UniProt P06737)” the “probe-labelled cysteine peptide fold change” value was -0.0335. In the case of “RAD50_Q92878_133_CAEIDREMISSLGVSK (UniProt Q92878)”, the “probe-labelled cysteine peptide fold change” value is reported as -0.398. For “RABGEF1_Q9UJ41_157_GIHVDQSDLLCK (UniProt Q9UJ41)”, the “probe-labelled cysteine peptide fold change” value was -0.189. With “RAB3GAP1_Q15042_858_CEQEEEK (UniProt Q15042)” the “probe-labelled cysteine peptide fold change” value was 0.0514. “RAB18_Q9NP72_110_LDNWLNELETYCTR (UniProt Q9NP72)” was tested, and the “probe-labelled cysteine peptide fold change” value was 0.149. In the case of RABIF_P47224_23_AVLCQR (UniProt P47224), the “probe-labelled cysteine peptide fold change” value is reported as 0.196. In the case of “RAB3GAP1_Q15042_873_FVSCLLEQPEVLVTGAGR (UniProt Q15042)”, the “probe-labelled cysteine peptide fold change” value is reported as 0.33. For “RAC2_P15153_105_HHCPSTPIILVGTK (UniProt P15153)”, the “probe-labelled cysteine peptide fold change” value was -0.0965. For “RACGAP1_Q9H0H5_93_QRAEADCEK (UniProt Q9H0H5)”, the “probe-labelled cysteine peptide fold change” value was 0.249. In the case of “QRICH1_Q2TAL8_713_CPQSVK (UniProt Q2TAL8)”, the “probe-labelled cysteine peptide fold change” value is reported as -0.106. With “RAD50_Q92878_133_CAEIDR (UniProt Q92878)” the “probe-labelled cysteine peptide fold change” value was -0.017. In the case of “RABEP1_Q15276_263_ELHEVCHLLEQER (UniProt Q15276)”, the “probe-labelled cysteine peptide fold change” value is reported as 0.00414. “PXK_Q7Z7A4_112_GLQNYLNVITTNHILSNCELVKK (UniProt Q7Z7A4)” was tested, and the “probe-labelled cysteine peptide fold change” value was -0.0262. For “QPRT_Q15274_111_CSGIASAAAAAVEAAR (UniProt Q15274)”, the “probe-labelled cysteine peptide fold change” value was 0.037. In the case of “QSOX2_Q6ZRP7_539_LQWPTPDLCPACHEEIK (UniProt Q6ZRP7)”, the “probe-labelled cysteine peptide fold change” value is reported as 0.012. “RAB3GAP2_Q9H2M9_896_QLEDCLILQTLLHSK (UniProt Q9H2M9)” was tested, and the “probe-labelled cysteine peptide fold change” value was -0.0281. “R3HCC1_Q9Y3T6_78_TVICHQDIR (UniProt Q9Y3T6+R3HCC1)” was tested, and the “probe-labelled cysteine peptide fold change” value was 0.0856. For “RABGAP1_Q9Y3P9_582_GEVWQLLAGCHNNDHLVEK (UniProt Q9Y3P9)”, the “probe-labelled cysteine peptide fold change” value was 0.0142. “QTRT1_Q9BXR0_319_DFGPIDPECTCPTCQK (UniProt Q9BXR0)” was tested, and the “probe-labelled cysteine peptide fold change” value was -0.244. In the case of “RAD1_O60671_215_DSDLMEAFHCNQTQVNR (UniProt O60671)”, the “probe-labelled cysteine peptide fold change” value is reported as 0.0642. In the case of “RAB3GAP1_Q15042_693_AANPGCSLEDFVR (UniProt Q15042)”, the “probe-labelled cysteine peptide fold change” value is reported as -0.108. For “QARS_P47897_657+665_GPSGCVESLEVTCR (UniProt P47897)”, the “probe-labelled cysteine peptide fold change” value was -0.0855. “RAB20_Q9NX57_179_MLDEQDVPAAEQMCFETSAK (UniProt Q9NX57)” was tested, and the “probe-labelled cysteine peptide fold change” value was -0.351. For “RABEPK_Q7Z6M1_36_VGHSCSYLPPVGNAK (UniProt Q7Z6M1)”, the “probe-labelled cysteine peptide fold change” value was -0.0563. For “RAD21_O60216_35_AHVFECNLESSVESIISPK (UniProt O60216)”, the “probe-labelled cysteine peptide fold change” value was 0.111. In the case of “RABEP2_Q9H5N1_482_VQREETEVLEASLCSLR (UniProt Q9H5N1)”, the “probe-labelled cysteine peptide fold change” value is reported as -0.0452. In the case of “PXN_P49023_443_TWHPEHFFCAQCGAFFGPEGFHEK (UniProt P49023)”, the “probe-labelled cysteine peptide fold change” value is reported as 0.113. In the case of “PWP2_Q15269_630_FVCIYHVR (UniProt Q15269)”, the “probe-labelled cysteine peptide fold change” value is reported as 0.371. “RAD21_O60216_585_TGAESISLLELCR (UniProt O60216)” was tested, and the “probe-labelled cysteine peptide fold change” value was -0.0716. For “RAB9A_P51151_142_QVSTEEAQAWCR (UniProt P51151)”, the “probe-labelled cysteine peptide fold change” value was -0.13. In the case of “RAB14_P61106_40_FMADCPHTIGVEFGTR (UniProt P61106)”, the “probe-labelled cysteine peptide fold change” value is reported as 0.0136. “RABL6_Q3YEC7_172_VPTHVPVCVLGNYR (UniProt Q3YEC7)” was tested, and the “probe-labelled cysteine peptide fold change” value was 0.101. For “RAD21_O60216_392_CLTPLVPEDLR (UniProt O60216)”, the “probe-labelled cysteine peptide fold change” value was 0.0227. For “PXN_P49023_505+523_ECFTPFVNGSFFEHDGQPYCEVHYHER (UniProt P49023)”, the “probe-labelled cysteine peptide fold change” value was 0.019. For “R3HCC1_Q9Y3T6_5_ALLCLDGVFLSSAENDFVHR (UniProt Q9Y3T6+R3HCC1)”, the “probe-labelled cysteine peptide fold change” value was 0.00353.
